Reference: PubChem BioAssay AID1688 (National Center for Advancing Translational Sciences (NCATS), 2009)
In all, about 220,000 compounds went through this assay and about 2,400 (1.1%) were called active. This list was built around the results that the source calls inconclusive (neither active nor inactive); the mix of calls is not that of the screen. Calls come from the whole dose curve; as a rule, active = well fitted inhibition curve with a large enough effect; inconclusive = small, poorly fitted or top-dose-only effect, or effect the other way; inactive = no such curve, though single readings can be large or run the other way. A potency beside an inconclusive call is a rough fit, not a confirmed value.

Assay: qHTS Multiplex Assay to Identify Dual Action Probes in a Cell Model of Huntington: Aggregate Formation (GFP); note: nearly all actives have a fitted effect of over 60% in size
Conditions: PC12 HttQ103-GFP aggregates, Acumen cytometry, 40 h; activity change, negative = inhibition: at 46.1 µM (top of the series) unless noted
How it was run: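 Ecdysone-promoter PC12 model expressing HTT exon 1 Q103 fused to GFP, induced by tebufenozide at 100 nM final. Compounds titrated; aggregates sized 1–25 µm scored on a 488 nm laser cytometer.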
% is set by controls: 0 for no effect and ±100 for the full control effect; potency is the fitted concentration of half-maximal effect.

| SMILES | Potency | activity change, negative = inhibition |
| --- | --- | --- |
| COc1ccc(C(=O)NCCCCCC(=O)N/N=C/c2ccco2)cc1OC | inactive | – |
| Nc1nc(NCCCN2CCOCC2)nc(Nc2ccc(F)cc2)c1[N+](=O)[O-] | inconclusive: 31.6 µM [activator, single point] | – |
| CCc1ccc2c(c1)c1nc(C)sc1n2CC | inconclusive: 7.08 µM [activator, full curve] | – |
| CCN(CC)c1ccc(/C=N/NC(=O)c2cnccn2)c(O)c1 | inconclusive: 0.794 µM [inhibitor, full curve] | – |
| CC(=O)C1=C(C)N(Cc2ccccc2)C(=O)N[C@H]1c1ccco1 | inconclusive: 1.26 µM [activator, partial curve] | – |
| CCOC(=O)CCCSc1nnc(CCCCCN2C(=O)c3cccc4cccc(c34)C2=O)o1 | inconclusive: 3.16 µM [activator, single point] | – |
| Cc1ccc(CNS(=O)(=O)c2ccc3c(c2)CCN3C(=O)CCCC(=O)O)cc1 | inconclusive: 5.62 µM [inhibitor, single point] | – |
| COc1ccc(CN(Cc2cccnc2)C(=S)NCCc2ccccc2)cc1OC | inconclusive: 12.6 µM [inhibitor, single point] | – |
| O=C(Nc1cccc2ccccc12)c1ccc(OC(=S)N2CCOCC2)cc1 | inconclusive: 15.8 µM [inhibitor, single point] | – |
| CCn1c(SCC(=O)N/N=C/c2ccc(C)o2)nnc1-c1ccccc1 | inactive | – |
| Cn1cc(CN2CCc3c([nH]c4ccccc34)C2C(C)(C)C)cn1 (stereo not given) | – | inactive: 6.35% [at 9.22 µM] |
| COc1ccc2ccccc2c1/C=N/O | inactive | – |
| O=C(c1ccccc1F)N1CCN(Cc2cccc(Cl)c2)CC1 | inconclusive: 17.8 µM [inhibitor, partial curve] | – |
| CCOc1ccc(NC(=O)CSc2nnc(C(C)C)n2CC)cc1 | inactive | – |
| CC(Oc1ccc(-c2ccccc2)c(F)c1)c1ccn(S(=O)(=O)c2ccc(Cl)cc2)n1 (stereo not given) | inconclusive: 17.8 µM [inhibitor, partial curve] | – |
| CCCCOC(=O)CSC1=C(C#N)C(c2ccccc2OCC)C(C#N)C(=O)N1 (stereo not given) | inactive | – |
| COc1ccc(Nc2nc(N)nc(CSc3nccn3C)n2)cc1 | inconclusive: 5.62 µM [inhibitor, single point] | – |
| NCCc1ccn[nH]1 | inactive | – |
| Cc1cc(O)c(Oc2cc(C)cc(O)c2O)c(O)c1 | – | inactive: 0.594% [at 9.22 µM] |
| Cc1nc([N+](=O)[O-])c(Br)n1CC(=O)c1ccccc1 | inconclusive: 35.5 µM [inhibitor, single point] | – |
| C/C(N)=C(/C#N)C(=O)CSc1nnnn1-c1ccc(C)cc1C | inconclusive: 5.01 µM [inhibitor, partial curve] | – |
| Cn1cc(C(c2ccccn2)c2cn(C)c3ccccc23)c2ccccc21 | inconclusive: 12.6 µM [inhibitor, partial curve] | – |
| COc1cc(OC)cc(C(=O)NCC(=O)OCC(=O)N2CCc3ccccc32)c1 | inconclusive: 5.62 µM [activator, single point] | – |

| SMILES | Potency | activity change, negative = inhibition |
| --- | --- | --- |
| CC1=C(/C=C/C(C)=C/C=C/C(C)=C/C(=O)Nc2ccc(O)cc2)C(C)(C)CCC1 | inconclusive: 20 µM [inhibitor, partial curve, poor fit] | – |
| COc1c(F)c(F)c(C(=O)Nc2ccccc2N2CCN(C(=O)C(C)C)CC2)c(F)c1F | inconclusive: 3.55 µM [inhibitor, partial curve, poor fit] | – |
| CSc1ccccc1C(=O)OCC(=O)NC1CCS(=O)(=O)C1 (stereo not given) | inactive | – |
| CCc1c(C)nc2ncnn2c1N1CCCC(C(=O)NCc2ccc3c(c2)OCO3)C1 (stereo not given) | inactive | – |
| NS(=O)(=O)c1ccc(CCNCc2cc(Br)ccc2OCc2ccccc2)cc1 | inconclusive: 22.4 µM [inhibitor, single point] | – |
| O=C(Nn1cnc2ccccc2c1=O)C1CCCCC1 | inconclusive: 3.55 µM [activator, single point] | – |
| Cc1cccc(C)c1OC1(c2ccccc2)OC(=O)c2ccccc21 (stereo not given) | inconclusive: 25.1 µM [inhibitor, single point] | – |
| CCCC(NCC(O)COc1ccc(-c2ccccc2)cc1)c1ccccc1 (stereo not given) | inconclusive: 25.1 µM [inhibitor, single point] | – |
| O=C(CSc1nnc(-c2cccc(S(=O)(=O)N3CCCCC3)c2)o1)c1ccc[nH]1 | inconclusive: 1 µM [inhibitor, partial curve, poor fit] | – |
| NNC(=O)c1cncc(Br)c1 | – | inactive: 0% [at 9.22 µM] |
| CC(Sc1nc2ccccc2s1)C(=O)NCc1ccc2c(c1)OCO2 (stereo not given) | inconclusive: 3.55 µM [inhibitor, single point] | – |
| Cc1ccc(-n2nnnc2SCC(=O)Nc2cccc(NC(=O)c3ccco3)c2)cc1C | active: 10 µM | – |
| Cc1cccc(NC(=O)c2cccc(C(F)(F)F)c2)c1 | inconclusive: 0.355 µM [activator, full curve, poor fit] | – |
| CCCOC(=O)c1ccc(Oc2c(-c3ccc(OCC)cc3O)n[nH]c2C)cc1 | inconclusive: 35.5 µM [inhibitor, single point] | – |
| Cc1ccc(/C=C/C(=O)c2c(C)cc(C)[nH]c2=O)cc1 | inconclusive: 15.8 µM [inhibitor, single point] | – |
| CCCCN(c1ccccc1)c1ncnc(N)c1[N+](=O)[O-] | active: 7.08 µM | – |
| COC(=O)COc1ccc(NS(=O)(=O)c2cccc([N+](=O)[O-])c2)cc1 | inactive | – |
| Cc1ccc(Cn2ncn3c(cc4ccccc43)c2=O)cc1 | inconclusive: 35.5 µM [inhibitor, single point] | – |
| CCOc1ccc(NC(=O)CSc2nc3ccccc3c(=O)n2CCCC(=O)NCCCN2CCCC2=O)cc1 | inactive | – |
| CCN(CC)c1ccc(/C=C(\C#N)c2nc(-c3cccs3)c(NC(C)=O)s2)cc1 | active: 12.6 µM | – |
| CCOc1ncccc1C(=O)NCC1COc2ccccc2O1 (stereo not given) | inconclusive: 12.6 µM [inhibitor, partial curve] | – |
| O=C(CN1C(=O)COc2ccccc21)N1CCCc2ccccc21 | inconclusive: 3.16 µM [inhibitor, single point] | – |
